At least one read-out could not be matched to a standard name with certainty.
Assay: water solubility / solubilization of the compound of Formula 1
Type: physicochemical
Settings: pH range usable as eye drop formulation, pH 5 to 7

Nc1nc2c(nc(O)n2[C@H]2C[C@H](O)[C@@H](CO)O2)c(=O)[nH]1 [compound of Formula 1, 8-oxo-2′-deoxyguanosine]
solubilization by increasing the pH: cannot be solubilized

Reference: US20250082665A1, “EYE DROP FORMULATIONS IN THE FORM OF AN AQUEOUS SOLUTION COMPRISING 8-OXO-2'-DEOXYGUANOSINE OR A PHARMACEUTICALLY ACCEPTABLE SALT THEREOF” (RUDACURE CORPORATION, priority 2023, published 2025)
